Test results: the supplement of paper PMC10849652
This is one part of the list.

Sequences of proteins named here, by UniProt entry; tags and fusion partners are left off. A change or cut given only in a name is not applied to a line headed by its entry.
UniProt Q6KCM7: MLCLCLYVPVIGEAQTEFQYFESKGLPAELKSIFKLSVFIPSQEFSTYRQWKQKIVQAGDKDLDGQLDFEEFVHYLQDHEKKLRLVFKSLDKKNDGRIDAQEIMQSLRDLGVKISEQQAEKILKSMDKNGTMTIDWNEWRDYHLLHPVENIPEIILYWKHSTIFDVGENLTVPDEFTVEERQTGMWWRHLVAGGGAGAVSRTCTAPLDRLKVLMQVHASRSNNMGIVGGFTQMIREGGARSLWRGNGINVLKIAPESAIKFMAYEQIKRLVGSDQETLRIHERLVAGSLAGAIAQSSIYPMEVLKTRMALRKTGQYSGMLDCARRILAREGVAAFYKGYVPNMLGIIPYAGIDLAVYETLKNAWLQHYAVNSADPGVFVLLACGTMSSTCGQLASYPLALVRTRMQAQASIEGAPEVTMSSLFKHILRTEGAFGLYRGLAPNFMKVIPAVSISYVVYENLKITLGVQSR
UniProt P11166: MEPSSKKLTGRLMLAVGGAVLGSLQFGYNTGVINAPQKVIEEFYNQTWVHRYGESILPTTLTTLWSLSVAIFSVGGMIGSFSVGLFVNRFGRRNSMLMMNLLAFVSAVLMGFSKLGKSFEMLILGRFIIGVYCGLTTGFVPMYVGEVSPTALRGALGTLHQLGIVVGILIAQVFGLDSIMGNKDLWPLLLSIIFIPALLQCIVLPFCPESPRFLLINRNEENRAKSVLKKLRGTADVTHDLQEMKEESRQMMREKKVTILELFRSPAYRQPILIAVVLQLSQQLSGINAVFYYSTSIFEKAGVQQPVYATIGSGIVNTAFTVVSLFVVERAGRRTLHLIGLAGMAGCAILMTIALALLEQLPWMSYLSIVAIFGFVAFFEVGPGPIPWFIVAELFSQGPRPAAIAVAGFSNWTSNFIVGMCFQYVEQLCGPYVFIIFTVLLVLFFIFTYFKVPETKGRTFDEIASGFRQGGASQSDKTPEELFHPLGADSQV
UniProt Q00325: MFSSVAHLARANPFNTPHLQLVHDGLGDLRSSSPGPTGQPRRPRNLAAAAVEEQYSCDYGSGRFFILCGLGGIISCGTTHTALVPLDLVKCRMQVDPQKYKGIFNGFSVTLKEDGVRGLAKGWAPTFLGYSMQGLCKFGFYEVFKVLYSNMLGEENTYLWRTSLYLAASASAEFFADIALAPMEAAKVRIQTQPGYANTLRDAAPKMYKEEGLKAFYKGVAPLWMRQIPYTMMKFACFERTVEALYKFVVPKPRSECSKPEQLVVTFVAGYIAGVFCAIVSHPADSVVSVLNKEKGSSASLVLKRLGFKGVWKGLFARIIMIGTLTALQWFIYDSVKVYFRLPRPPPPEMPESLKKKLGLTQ
UniProt Q9UBX3: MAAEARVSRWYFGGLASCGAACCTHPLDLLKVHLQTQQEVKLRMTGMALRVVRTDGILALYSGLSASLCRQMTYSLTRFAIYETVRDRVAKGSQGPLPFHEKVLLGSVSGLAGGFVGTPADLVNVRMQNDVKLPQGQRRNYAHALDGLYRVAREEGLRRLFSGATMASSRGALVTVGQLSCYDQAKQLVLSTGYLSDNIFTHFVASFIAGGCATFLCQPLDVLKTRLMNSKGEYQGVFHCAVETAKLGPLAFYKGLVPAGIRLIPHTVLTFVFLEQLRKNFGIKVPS
UniProt Q9ULF5: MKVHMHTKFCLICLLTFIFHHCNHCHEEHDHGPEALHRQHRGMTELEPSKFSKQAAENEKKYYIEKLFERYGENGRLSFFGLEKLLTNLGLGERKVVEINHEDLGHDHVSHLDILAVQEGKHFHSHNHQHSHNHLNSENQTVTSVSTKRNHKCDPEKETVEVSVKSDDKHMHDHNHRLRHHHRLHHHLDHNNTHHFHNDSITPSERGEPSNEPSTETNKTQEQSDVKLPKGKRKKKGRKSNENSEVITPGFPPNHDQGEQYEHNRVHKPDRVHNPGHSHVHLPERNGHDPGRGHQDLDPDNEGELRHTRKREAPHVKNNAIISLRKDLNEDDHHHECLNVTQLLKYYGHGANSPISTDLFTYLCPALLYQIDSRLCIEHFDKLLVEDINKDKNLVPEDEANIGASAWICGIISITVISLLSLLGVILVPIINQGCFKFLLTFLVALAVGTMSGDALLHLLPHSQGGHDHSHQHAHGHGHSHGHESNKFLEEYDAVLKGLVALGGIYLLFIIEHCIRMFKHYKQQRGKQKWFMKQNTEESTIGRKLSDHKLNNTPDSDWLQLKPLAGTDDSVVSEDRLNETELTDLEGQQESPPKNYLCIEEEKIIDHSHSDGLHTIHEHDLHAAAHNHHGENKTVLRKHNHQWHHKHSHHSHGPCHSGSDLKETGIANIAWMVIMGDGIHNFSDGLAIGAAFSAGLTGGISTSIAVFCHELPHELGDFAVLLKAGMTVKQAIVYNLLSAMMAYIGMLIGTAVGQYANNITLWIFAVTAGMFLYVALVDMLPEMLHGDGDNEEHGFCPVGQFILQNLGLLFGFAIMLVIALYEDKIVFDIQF
UniProt P04920: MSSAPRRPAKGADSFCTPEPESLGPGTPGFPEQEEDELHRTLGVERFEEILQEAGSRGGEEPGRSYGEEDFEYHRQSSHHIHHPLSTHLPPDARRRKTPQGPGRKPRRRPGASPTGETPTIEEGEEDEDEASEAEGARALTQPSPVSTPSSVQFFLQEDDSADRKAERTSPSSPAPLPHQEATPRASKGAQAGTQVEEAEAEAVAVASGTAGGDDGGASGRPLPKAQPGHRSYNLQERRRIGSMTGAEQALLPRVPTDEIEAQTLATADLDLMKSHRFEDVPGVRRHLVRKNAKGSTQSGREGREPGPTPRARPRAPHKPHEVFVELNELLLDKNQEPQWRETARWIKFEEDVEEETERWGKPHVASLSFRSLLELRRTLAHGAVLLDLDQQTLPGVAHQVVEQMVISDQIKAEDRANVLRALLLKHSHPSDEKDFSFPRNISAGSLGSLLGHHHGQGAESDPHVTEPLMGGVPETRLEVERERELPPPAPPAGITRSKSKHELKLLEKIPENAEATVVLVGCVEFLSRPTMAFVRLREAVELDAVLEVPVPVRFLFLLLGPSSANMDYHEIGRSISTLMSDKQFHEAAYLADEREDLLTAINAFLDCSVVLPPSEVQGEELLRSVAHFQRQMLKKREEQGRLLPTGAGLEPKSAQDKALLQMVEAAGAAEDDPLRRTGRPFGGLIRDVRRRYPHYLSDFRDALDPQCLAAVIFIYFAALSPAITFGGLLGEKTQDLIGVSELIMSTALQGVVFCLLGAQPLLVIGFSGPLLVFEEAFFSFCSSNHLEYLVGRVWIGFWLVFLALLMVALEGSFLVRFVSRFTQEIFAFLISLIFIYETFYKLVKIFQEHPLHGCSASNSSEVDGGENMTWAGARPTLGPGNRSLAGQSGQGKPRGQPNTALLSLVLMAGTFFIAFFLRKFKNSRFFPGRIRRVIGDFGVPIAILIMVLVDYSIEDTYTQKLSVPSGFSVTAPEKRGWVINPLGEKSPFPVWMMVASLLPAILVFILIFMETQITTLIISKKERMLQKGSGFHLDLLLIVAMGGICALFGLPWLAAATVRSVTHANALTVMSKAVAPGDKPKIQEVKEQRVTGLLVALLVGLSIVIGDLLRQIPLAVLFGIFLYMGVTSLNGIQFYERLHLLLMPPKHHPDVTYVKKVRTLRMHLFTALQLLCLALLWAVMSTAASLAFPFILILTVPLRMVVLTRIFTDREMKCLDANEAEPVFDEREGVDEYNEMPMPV
UniProt Q9NYZ2: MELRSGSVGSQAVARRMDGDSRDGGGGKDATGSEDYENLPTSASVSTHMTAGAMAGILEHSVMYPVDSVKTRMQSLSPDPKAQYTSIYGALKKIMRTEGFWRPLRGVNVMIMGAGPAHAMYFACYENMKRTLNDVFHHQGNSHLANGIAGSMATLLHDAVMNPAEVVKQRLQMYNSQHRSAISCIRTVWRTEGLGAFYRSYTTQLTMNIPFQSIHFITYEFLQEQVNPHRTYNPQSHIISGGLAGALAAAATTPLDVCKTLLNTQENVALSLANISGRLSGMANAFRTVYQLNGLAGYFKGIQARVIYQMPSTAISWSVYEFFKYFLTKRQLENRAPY
UniProt Q8TBP6: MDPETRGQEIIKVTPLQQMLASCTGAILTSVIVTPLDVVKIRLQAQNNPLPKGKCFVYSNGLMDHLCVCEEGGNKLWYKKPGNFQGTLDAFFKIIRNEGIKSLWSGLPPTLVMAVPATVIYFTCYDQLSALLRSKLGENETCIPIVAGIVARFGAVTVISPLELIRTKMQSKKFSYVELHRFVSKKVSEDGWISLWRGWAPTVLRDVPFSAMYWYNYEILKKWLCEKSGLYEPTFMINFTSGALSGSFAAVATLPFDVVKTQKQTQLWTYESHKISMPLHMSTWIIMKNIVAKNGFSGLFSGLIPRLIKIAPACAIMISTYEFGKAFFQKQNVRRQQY
UniProt O00400: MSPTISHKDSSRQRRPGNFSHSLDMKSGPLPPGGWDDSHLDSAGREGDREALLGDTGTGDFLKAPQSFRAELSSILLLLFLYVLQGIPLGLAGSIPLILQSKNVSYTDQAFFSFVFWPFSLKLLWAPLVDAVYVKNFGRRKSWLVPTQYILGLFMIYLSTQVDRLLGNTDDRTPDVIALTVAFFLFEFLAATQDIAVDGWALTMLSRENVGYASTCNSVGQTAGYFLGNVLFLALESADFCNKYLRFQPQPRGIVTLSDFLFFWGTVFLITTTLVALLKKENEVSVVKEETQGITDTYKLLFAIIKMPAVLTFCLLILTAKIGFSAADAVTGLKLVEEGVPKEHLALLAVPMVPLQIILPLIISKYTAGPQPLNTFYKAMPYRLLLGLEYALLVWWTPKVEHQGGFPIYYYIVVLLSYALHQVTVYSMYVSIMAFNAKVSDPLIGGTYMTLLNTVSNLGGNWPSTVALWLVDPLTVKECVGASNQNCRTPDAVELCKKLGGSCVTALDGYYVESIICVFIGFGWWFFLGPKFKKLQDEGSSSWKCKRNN
UniProt Q9H0C2: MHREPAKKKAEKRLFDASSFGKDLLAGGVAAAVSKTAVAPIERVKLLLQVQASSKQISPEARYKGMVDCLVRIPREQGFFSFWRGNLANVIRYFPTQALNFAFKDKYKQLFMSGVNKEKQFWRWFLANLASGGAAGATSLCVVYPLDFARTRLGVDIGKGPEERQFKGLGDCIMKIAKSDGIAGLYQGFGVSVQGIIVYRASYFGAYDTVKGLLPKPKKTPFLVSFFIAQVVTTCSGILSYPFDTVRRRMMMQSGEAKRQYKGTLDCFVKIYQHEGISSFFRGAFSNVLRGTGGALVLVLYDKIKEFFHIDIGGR
UniProt P48067: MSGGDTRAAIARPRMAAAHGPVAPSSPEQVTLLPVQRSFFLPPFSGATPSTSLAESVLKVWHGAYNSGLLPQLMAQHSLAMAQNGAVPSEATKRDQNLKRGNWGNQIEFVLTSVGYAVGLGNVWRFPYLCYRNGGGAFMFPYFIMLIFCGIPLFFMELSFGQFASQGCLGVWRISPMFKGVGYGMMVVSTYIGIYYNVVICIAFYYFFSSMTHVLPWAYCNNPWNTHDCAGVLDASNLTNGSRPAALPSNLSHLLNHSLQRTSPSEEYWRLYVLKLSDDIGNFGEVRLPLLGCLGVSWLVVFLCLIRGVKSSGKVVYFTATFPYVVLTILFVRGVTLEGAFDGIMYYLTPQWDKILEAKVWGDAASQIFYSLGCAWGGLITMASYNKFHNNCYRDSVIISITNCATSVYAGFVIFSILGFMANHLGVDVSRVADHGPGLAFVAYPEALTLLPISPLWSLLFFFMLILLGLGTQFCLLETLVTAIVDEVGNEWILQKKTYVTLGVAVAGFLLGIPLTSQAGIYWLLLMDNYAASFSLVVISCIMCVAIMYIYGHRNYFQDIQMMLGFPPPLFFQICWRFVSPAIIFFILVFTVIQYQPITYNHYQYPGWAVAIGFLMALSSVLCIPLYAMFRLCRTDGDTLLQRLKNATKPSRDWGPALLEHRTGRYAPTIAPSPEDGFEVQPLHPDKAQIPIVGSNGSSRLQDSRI
UniProt Q13485: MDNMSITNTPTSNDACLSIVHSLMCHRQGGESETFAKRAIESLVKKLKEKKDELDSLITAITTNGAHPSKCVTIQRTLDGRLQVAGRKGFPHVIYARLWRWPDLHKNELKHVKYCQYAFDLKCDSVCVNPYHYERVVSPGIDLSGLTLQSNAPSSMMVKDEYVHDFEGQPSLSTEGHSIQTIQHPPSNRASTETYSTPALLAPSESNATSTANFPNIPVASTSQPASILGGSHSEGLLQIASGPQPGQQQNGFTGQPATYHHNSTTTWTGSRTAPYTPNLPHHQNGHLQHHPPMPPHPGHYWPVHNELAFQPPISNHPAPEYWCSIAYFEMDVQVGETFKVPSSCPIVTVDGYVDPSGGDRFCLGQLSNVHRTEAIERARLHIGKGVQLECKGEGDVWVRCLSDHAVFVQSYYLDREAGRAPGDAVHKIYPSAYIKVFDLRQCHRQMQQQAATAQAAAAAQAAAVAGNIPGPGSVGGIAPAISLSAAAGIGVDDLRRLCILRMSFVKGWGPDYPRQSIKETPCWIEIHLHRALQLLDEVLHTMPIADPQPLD

compound: COc1cc2ncnc(Nc3ccc(F)c(Cl)c3)c2cc1OCCCN1CCOCC1 [gefitinib]; experiment: log2 fold change, soluble protein after heating vs DMSO (PISA); higher = thermal stabilisation; K562 lysate, 10 uM; active = over 0.2 and 3.5 SD of the protein, either way, in both replicates (recomputed)
Method in brief: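 Log-two fold change in thermal stability relative to solvent controls is reported from duplicates. For each sample, crude K562 extract from dounce-homogenised pellets in PBS pH 7.4 with 1 mM MgCl2, at 1 mg/mL protein, was treated with 10 μM compound for 30 min. Aliquots heated for 3 min across 48°C-58°C were pooled, brought to 0.5% NP-40 at 4°C and cleared at 21,000xg for 90 min. The supernatant was quantified by TMTpro 16plex LC-MS/MS with channel sums equalised.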

log2 fold change, inactive:
SLC43A1 (UniProt O75387) -0.022
SMARCA2 (UniProt P51531) -0.098
SLC25A25 isoform 3 (UniProt Q6KCM7) 0.037
SLC2A1 (UniProt P11166) 0.046
SLC25A32 (UniProt Q9H2D1) -0.033
SMAP2 (UniProt Q8WU79) -0.03
SLC43A3 isoform 2 (UniProt Q8NBI5) 0.044
SLC25A42 (UniProt Q86VD7) -0.081
SLC35A2 isoform 4 (UniProt P78381) 0.102
SLC25A3 isoform 2 (UniProt Q00325) -0.001
SLC25A10 isoform 2 (UniProt Q9UBX3) -0.056
SLC39A10 (UniProt Q9ULF5) 0
SLC6A6 (UniProt P31641) 0.006
SLC30A10 (UniProt Q6XR72) -0.009
SLC4A2 (UniProt P04920) 0.087
SLC2A3 (UniProt P11169) 0.049
SLC7A5 (UniProt Q01650) 0.006
SLC25A15 (UniProt Q9Y619) 0.031
SLC25A37 (UniProt Q9NYZ2) 0.04
SLC4A7 isoform 7 (UniProt Q9Y6M7) -0.006
SLC38A2 (UniProt Q96QD8) 0.027
SLC30A9 (UniProt Q6PML9) -0.01
SLC38A5 (UniProt Q8WUX1) -0.027
SLC25A36 (UniProt Q96CQ1) 0.025
SLC35B2 (UniProt Q8TB61) 0.011
SLC7A1 (UniProt P30825) 0.042
SLC25A40 (UniProt Q8TBP6) -0.001
SMAP1 isoform 2 (UniProt Q8IYB5) 0.007
SLC33A1 (UniProt O00400) 0.039
SLC25A31 (UniProt Q9H0C2) 0.032
SLC6A9 isoform 2 (UniProt P48067) 0.046
SLC25A38 (UniProt Q96DW6) 0.094
SLC7A6 (UniProt Q92536) 0.225
SLC30A5 (UniProt Q8TAD4) 0.001
SMAD4 (UniProt Q13485) -0.028
SLC6A8 (UniProt P48029) -0.018
SLC25A24 (UniProt Q6NUK1) 0.011
SLC39A14 (UniProt Q15043) 0.066

Pulled one by one from the entries so far:
log2 fold change, inactive:
SLC30A9 (UniProt Q6PML9) -0.01
SLC6A8 (UniProt P48029) -0.018
